The values below come from US20240182599A1.

The chains behind the UniProt entries cited, without tags or fusion partners. Where a name states a change or a piece, a line headed by the entry shows the natural chain unless it says otherwise. A line that says so, or that is headed by a name, gives the form on record, which may keep a tag or linker. Residues count along the entry.
recombinant His6-tagged Cε2 protein of human IgE (P01854, residues 104-210): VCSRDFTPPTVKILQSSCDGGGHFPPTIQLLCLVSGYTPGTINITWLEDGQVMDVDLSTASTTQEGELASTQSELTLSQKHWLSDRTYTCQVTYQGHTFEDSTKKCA
recombinant human IgE Cε2-4 protein (P01854, form named): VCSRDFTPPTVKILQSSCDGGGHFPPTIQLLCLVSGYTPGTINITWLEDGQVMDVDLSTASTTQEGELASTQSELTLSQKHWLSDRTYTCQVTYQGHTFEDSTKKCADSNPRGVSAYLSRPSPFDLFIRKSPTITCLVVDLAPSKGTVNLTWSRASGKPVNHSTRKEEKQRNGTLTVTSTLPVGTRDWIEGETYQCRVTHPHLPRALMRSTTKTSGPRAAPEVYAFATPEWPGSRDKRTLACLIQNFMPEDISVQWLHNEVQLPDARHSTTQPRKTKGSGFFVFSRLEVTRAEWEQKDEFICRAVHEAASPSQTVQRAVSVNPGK

Assay [1] addresses recombinant human IgE Cε2-4 protein (human) (UniProt P01854). Briefly: ELISA on coated Cε2-4.
For assay [2], the target named is recombinant His6-tagged Cε2 protein of human IgE (human) (UniProt P01854). Briefly: ELISA on coated recombinant His6-tagged Cε2.

Numbering of substitutions follows the chain as printed. Results are given in words; binding and its absence hold for the method and conditions named. Some results given as binding are weak or reduced against the parent protein; the word gives no strength.

B1: 21626B-H3 Fab (Fab, V domains shown)
VH: QSLGESRGRLVTPGGSLTLTCTASGFSLSSYAMGWVRQAPGKGLEYIGWISAGGTTYYASWVNSRFTISRTSTTVDLEMTSLTTEDTATYFCAREGTGWGAYDIWGPGTLVTVSL
VL: ALVMTQTPASVSAAVGGTVTINCQASQSIHKYLSWYQQKPGQPPKLLIYRASTLASGVPSRFKGSGSGTQFTLTISDLECDDAATYYCQQDAAVISIDNSFGGGTEVVVK
For B1, the binding result in assay [1] and in assay [2] was “binds” each time.

B2: 21626B-C4-8 Fab (Fab, V domains shown)
VH: QSLEESGGRLVTPGTPLTLTCTASGFSLSSYYMSWVRQAPEKGLEWIGIIYPSGNTYYANWANGRFAISRTSTTVDLKITSPTTEDTATYFCARDSGYPDIWGPGTLVTVSL
VL: ALVMTQTPSSVSAAVGGTVTINCQASQSISSYLSWYQQKPGQRPKPLIYETSKLASGVSSRFSGSGSGTEFTLTISGVECADAATYYCQQDAGVINVHNTFGGGTEVVVK
Consider B2, for which the binding result in assay [1] and in assay [2] was “binds” in each case.

B3: 21626B-A8 Fab (Fab, V domains shown)
VH: QLEESGGRLVTPGTPLTLTCTVSGIDLSSDSIGWVRQAPGKGLEWIGIIYPSGNVYYASWAKGRLTISKTSTTVELKMTSLTTEDTATYFCARDYYSTTLDIWGPGTLVTVSL
VL: B2 VL with A14V, T51A, S63K, G93A, I95M, H98D
With B3, the binding entry in assay [2] is given as “binds”.
